Results published in PubChem BioAssay AID248 (DTP/NCI, 2004).
The list does not hold the whole screen: it is rich in T/C values a quarter to a half above the control, in often repeated tests (any T/C) and in doses without a T/C. Other doses and runs of a compound stand elsewhere. T/C is the treated group as % of the vehicle group. Some entries give survivors of the animals treated and no T/C: the source holds a T/C of zero for them, seemingly a mark for toxic or unscored doses. Some survivor counts are full or nearly so, which does not show that the dose was tolerated: survival well below the control is almost never listed, so the zero probably covers shortened survival too. Counts of survivors are from the toxicity check (mostly the fifth day) where no day follows; animals may have died later. Schedule codes are those of the source, read here as Q, the interval in days (D) or hours (H), X, the number of doses. Some schedule codes hold Z or #, which are not explained here. Where survival is the endpoint, the PubChem record calls one and a half times the control and up active, and a quarter to a half above the control has no call in these data; cut-offs in other NCI protocols can differ. Some T/C values are followed by the survivors on the day toxicity was checked, most often the fifth; without a count, all were alive then.

System: L1210 leukemia ip in BDF1 mice, survival T/C
Assay: NCI In Vivo Anticancer Drug Screen. Data for tumor model L1210 Leukemia (intraperitoneal) in B6D2F1 (BDF1) mice
Conditions: T/C endpoint: mean survival time, higher T/C = longer survival
[1] = dose: 15.0 mg/kg/injection, schedule: Q01DX Z (ip), vehicle: carboxymethylcellulose (CMC)
[2] = dose: 400.0 mg/kg/injection, schedule: Q04DX003 (ip), vehicle: saline
[3] = dose: 200.0 mg/kg/injection, schedule: Q04DX003 (ip), vehicle: saline with Tween-80
[4] = dose: 300.0 mg/kg/injection, schedule: Q01DX001 (ip), vehicle: saline
[5] = dose: 400.0 mg/kg/injection, schedule: Q01DX001 (ip), vehicle: saline
[6] = dose: 100.0 mg/kg/injection, schedule: Q01DX009 (ip), vehicle: saline with Tween-80
[7] = dose: 400.0 mg/kg/injection, schedule: Q04DX002 (ip), vehicle: saline with Tween-80
[8] = dose: 400.0 mg/kg/injection, schedule: Q01DX001 (ip), vehicle: saline with Tween-80
[9] = dose: 150.0 mg/kg/injection, schedule: Q01DX001 (ip), vehicle: saline

O=C(Nc1ccc(C2=NCCN2)cc1)c1ccc(NC(=O)c2ccc(C3=NCCN3)cc2)cc1
T/C (dose: 15.0 mg/kg/injection, schedule: Q01DX009 (ip), vehicle: saline): 142 % of control | T/C [1]: 146 % of control | T/C (dose: 15.0 mg/kg/injection, schedule: Q01DX Z (ip), vehicle: saline): 131 % of control | T/C (dose: 30.0 mg/kg/injection, schedule: Q01DX009 (ip), vehicle: saline): 131 % of control | T/C (dose: 60.0 mg/kg/injection, schedule: Q01DX Z (ip), vehicle: carboxymethylcellulose (CMC)): 146 % of control | T/C (dose: 120.0 mg/kg/injection, schedule: Q01DX009 (ip), vehicle: saline): 134 % of control | survivor count (dose: 120.0 mg/kg/injection, schedule: Q01DX Z (ip), vehicle: carboxymethylcellulose (CMC)): 3 of 6

CCN(CC)CC(C)OC(=O)c1ccc(N)cc1 (stereo not drawn)
survivor count [2]: 1 of 6

CC(=O)OC1COC(NC(=O)NNc2ccccc2)C(OC(C)=O)C1OC(C)=O (stereo not drawn)
survivor count (dose: 400.0 mg/kg/injection, schedule: Q01DX009 (ip), vehicle: saline): 6 of 6

CC(=O)OC1C=CCC23C(=O)C=CC(=O)C12C(=O)c1ccccc1C3=O (stereo not drawn)
survivor count (dose: 75.0 mg/kg/injection, schedule: Q04DX003 (ip), vehicle: saline): 6 of 6 | survivor count (dose: 150.0 mg/kg/injection, schedule: Q04DX003 (ip), vehicle: saline): 6 of 6 | survivor count (dose: 300.0 mg/kg/injection, schedule: Q04DX003 (ip), vehicle: saline): 6 of 6

CCCCC/C(C)=N\Nc1ccccn1
survivor count (dose: 100.0 mg/kg/injection, schedule: Q01DX009 (ip), vehicle: Klucel (hydroxypropylcellulose) (HPC)): 1 of 6 | survivor count (dose: 150.0 mg/kg/injection, schedule: Q01DX009 (ip), vehicle: acetone): 0 of 6 | survivor count [3]: 1 of 6 | survivor count (dose: 225.0 mg/kg/injection, schedule: Q01DX009 (ip), vehicle: acetone): 0 of 6

NC(N)=Nc1ccc(NC(=O)c2ccc(C(=O)Nc3ccc(N=C(N)N)cc3)cc2)cc1
survivor count [1]: 6 of 6 | survivor count (dose: 15.0 mg/kg/injection, schedule: Q01DX Z (ip), vehicle: methylcellulose (MC)): 6 of 6 | survivor count (dose: 30.0 mg/kg/injection, schedule: Q01DX Z (ip), vehicle: methylcellulose (MC)): 0 of 6 | survivor count (dose: 60.0 mg/kg/injection, schedule: Q01DX Z (ip), vehicle: methylcellulose (MC)): 0 of 6 | survivor count (dose: 120.0 mg/kg/injection, schedule: Q01DX Z (ip), vehicle: methylcellulose (MC)): 0 of 6

CCC(C)(C)c1cccc(C(=O)O)c1O
survivor count (dose: 400.0 mg/kg/injection, schedule: Q01DX001 (ip), vehicle: carboxymethylcellulose (CMC)): 2 of 4

CCC(=O)C(c1ccccc1)(c1ccccc1)c1ccccc1
survivor count (dose: 400.0 mg/kg/injection, schedule: Q04DX002 (ip), vehicle: other): 2 of 3

OC/C=C\C1(O)CCCCC1
survivor count [4]: 0 of 6

O=C1C(=O)c2ccccc2C(O)=C1C(CCc1ccccc1)C1=C(O)c2ccccc2C(=O)C1=O
survivor count (dose: 150.0 mg/kg/injection, schedule: Q01DX001 (ip), vehicle: carboxymethylcellulose (CMC)): 1 of 6 | survivor count (dose: 300.0 mg/kg/injection, schedule: Q01DX001 (ip), vehicle: carboxymethylcellulose (CMC)): 0 of 6 | survivor count [4]: 2 of 6

Nc1cnccc1NCCN1CCN(c2ccccc2)CC1
survivor count (dose: 200.0 mg/kg/injection, schedule: Q01DX001 (ip), vehicle: saline): 0 of 4 | survivor count [5]: 0 of 4

Cc1cccc2c(C(=O)O)cc(-c3ccc(Cl)cc3)nc12
survivor count [6]: 5 of 6 | survivor count (dose: 200.0 mg/kg/injection, schedule: Q01DX009 (ip), vehicle: saline with Tween-80): 6 of 6

Cc1ccc(Cl)cc1NC(=S)N(C)C
survivor count [7]: 1 of 3

C[N+]12C(=O)CC3OCC=C4C[N+]5(C)CCC6(c7ccccc71)C2C3C4CC65O (stereo not drawn)
survivor count (dose: 38.0 mg/kg/injection, schedule: Q01DX001 (ip), vehicle: other): 0 of 6 | survivor count (dose: 75.0 mg/kg/injection, schedule: Q01DX001 (ip), vehicle: other): 0 of 6 | survivor count (dose: 150.0 mg/kg/injection, schedule: Q01DX001 (ip), vehicle: other): 0 of 6 | survivor count (dose: 300.0 mg/kg/injection, schedule: Q01DX001 (ip), vehicle: other): 0 of 6

Cc1ccc(N=Nc2ccc(C)cc2NC(=O)c2ccc(Cl)cc2)cc1
survivor count (dose: 100.0 mg/kg/injection, schedule: Q04DX003 (ip), vehicle: saline with Tween-80): 6 of 6 | survivor count (dose: 200.0 mg/kg/injection, schedule: Q01DX001 (ip), vehicle: saline with Tween-80): 6 of 6 | survivor count [3]: 6 of 6 | survivor count [8]: 6 of 6

Cc1ccc(NP(Br)(c2ccccc2)(c2ccccc2)c2ccccc2)cc1
survivor count (dose: 150.0 mg/kg/injection, schedule: Q01DX001 (ip), vehicle: acetone): 1 of 6 | survivor count (dose: 300.0 mg/kg/injection, schedule: Q01DX001 (ip), vehicle: acetone): 0 of 6

CC(=O)Oc1c2ccccc2cc2ccccc12
T/C (dose: 200.0 mg/kg/injection, schedule: Q04DX002 (ip), vehicle: Klucel (hydroxypropylcellulose) (HPC)): 144 % of control

COC(=O)C(Br)(Br)C(=O)OC
survivor count (dose: 100.0 mg/kg/injection, schedule: Q04DX002 (ip), vehicle: saline with Tween-80): 1 of 3 | survivor count (dose: 200.0 mg/kg/injection, schedule: Q04DX002 (ip), vehicle: saline with Tween-80): 0 of 3 | survivor count [7]: 0 of 3

Cn1c(=O)c2[nH]c(C3CCCCCC3)nc2n(C)c1=O
survivor count [5]: 1 of 4

CN1CCCCCC1
survivor count (dose: 200.0 mg/kg/injection, schedule: Q01DX009 (ip), vehicle: acetone): 0 of 6

COc1cc(OC)c(OC)cc1/C=C\c1ccnc2ccccc12
survivor count (dose: 3200.0 mg/kg/injection, schedule: Q04DX003 (ip), vehicle: Klucel (hydroxypropylcellulose) (HPC)): 3 of 6

Cc1c(C)c(Br)c(C)c(-c2c(O)c(Br)c(-c3c(C)c(C)c(C)c(Br)c3C)c(O)c2Br)c1C
survivor count (dose: 400.0 mg/kg/injection, schedule: Q04DX003 (ip), vehicle: saline with Tween-80): 6 of 6

Cc1cc([NH-])c([NH-])cc1C.[Cl][Pt+2][Cl]
T/C (dose: 8.2 mg/kg/injection, schedule: Q01DX009 (ip), vehicle: water): 141 % of control [5 of 6 alive] | T/C (dose: 12.5 mg/kg/injection, schedule: Q01DX009 (ip), vehicle: other): 127 % of control | T/C (dose: 12.5 mg/kg/injection, schedule: Q01DX009 (ip), vehicle: water): 128 % of control | T/C (dose: 12.5 mg/kg/injection, schedule: Q04DX003 (ip), vehicle: other): 127 % of control | T/C (dose: 25.0 mg/kg/injection, schedule: Q04DX003 (ip), vehicle: other): 132 % of control | T/C (dose: 25.0 mg/kg/injection, schedule: Q04DX003 (ip), vehicle: saline): 127 % of control | survivor count (dose: 50.0 mg/kg/injection, schedule: Q01DX009 (ip), vehicle: other): 6 of 6 | survivor count (dose: 100.0 mg/kg/injection, schedule: Q01DX009 (ip), vehicle: other): 1 of 6 | survivor count (dose: 200.0 mg/kg/injection, schedule: Q04DX003 (ip), vehicle: other): 5 of 6 | survivor count [2]: 6 of 6

COc1ccc(C)cc1NC(=S)NC(=O)c1cccc([N+](=O)[O-])c1
survivor count [8]: 4 of 6

CN(C)Cc1cc(O)c(CN(C)C)cc1O
survivor count [6]: 3 of 6

COc1ccc2c3c1OC1C(O)CCC4C(C2)N(C)CCC341 (stereo not drawn)
survivor count [8]: 1 of 3

Cc1ccc2c(C)nc(N=C(N)N)nc2c1
survivor count [9]: 3 of 6 | survivor count [4]: 0 of 6

CC([NH-])C(=O)[O-].[K+].[O]=[Co][O-] (stereo not drawn)
survivor count [9]: 1 of 6 | survivor count [4]: 0 of 6

CC1=CC(C)(C)NC(=S)N1c1cccc([N+](=O)[O-])c1
survivor count (dose: 750.0 mg/kg/injection, schedule: Q01DX Z (ip), vehicle: methylcellulose (MC)): 6 of 6
